Data from publication PMC4293114.
Results are given in words; binding and its absence hold for the method and conditions named. In cells and extracts the contact can be indirect.

Target: T1, endogenous UBF1/2 (upstream binding factor 1) (mouse (endogenous in mouse embryonic fibroblasts / 3T3 cells)) (UniProt P25976)
T1 sequence: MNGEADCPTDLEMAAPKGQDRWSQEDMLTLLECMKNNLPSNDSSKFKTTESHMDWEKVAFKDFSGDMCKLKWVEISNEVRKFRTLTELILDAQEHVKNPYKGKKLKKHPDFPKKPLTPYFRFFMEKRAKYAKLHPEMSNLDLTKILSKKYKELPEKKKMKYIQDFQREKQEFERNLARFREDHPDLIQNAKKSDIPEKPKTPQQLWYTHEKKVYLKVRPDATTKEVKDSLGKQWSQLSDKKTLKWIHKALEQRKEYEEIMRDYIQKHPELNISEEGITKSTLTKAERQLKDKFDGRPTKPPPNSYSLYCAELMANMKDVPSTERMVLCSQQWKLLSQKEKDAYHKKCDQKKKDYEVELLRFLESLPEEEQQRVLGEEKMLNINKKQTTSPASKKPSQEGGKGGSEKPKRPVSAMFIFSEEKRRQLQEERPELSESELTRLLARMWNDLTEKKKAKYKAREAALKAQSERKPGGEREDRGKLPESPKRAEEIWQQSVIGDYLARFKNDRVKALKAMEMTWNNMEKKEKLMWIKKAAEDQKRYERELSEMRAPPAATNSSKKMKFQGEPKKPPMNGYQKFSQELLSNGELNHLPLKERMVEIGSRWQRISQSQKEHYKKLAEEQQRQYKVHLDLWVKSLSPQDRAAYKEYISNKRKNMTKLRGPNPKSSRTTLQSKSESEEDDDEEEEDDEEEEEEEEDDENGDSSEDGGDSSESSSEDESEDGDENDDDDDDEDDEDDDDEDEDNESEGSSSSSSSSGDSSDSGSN
Assay: co-IP; lysates of cells overexpressing full-length GFP-HP1β or GFP-HP1β-ΔCSD, immunoprecipitated with anti-UBF1 (H-300), Western blot of HP1β

Substance: GFP-HP1β-ΔCSD (HP1β with a deleted chromo shadow domain) (domain or fragment)
- binding: no binding
